Assay results from US20230158032A1, “PHARMACEUTICAL COMBINATION FOR THE TREATMENT OF MYELOPROLIFERATIVE NEOPLASMS” (Universitätsklinikum Jena, priority 2020, published 2023).
Results are given in words; binding and its absence hold for the method and conditions named. For some of these results: In cells and extracts the contact can be indirect. Some binding calls cover weakened binding; strength is not graded here.

Chains of the proteins cited; added tags and fusions are not shown. Lines headed by an entry give the natural chain unless they say otherwise; changes in a name come on top. Residues count along the entry.
UniProt Q62120: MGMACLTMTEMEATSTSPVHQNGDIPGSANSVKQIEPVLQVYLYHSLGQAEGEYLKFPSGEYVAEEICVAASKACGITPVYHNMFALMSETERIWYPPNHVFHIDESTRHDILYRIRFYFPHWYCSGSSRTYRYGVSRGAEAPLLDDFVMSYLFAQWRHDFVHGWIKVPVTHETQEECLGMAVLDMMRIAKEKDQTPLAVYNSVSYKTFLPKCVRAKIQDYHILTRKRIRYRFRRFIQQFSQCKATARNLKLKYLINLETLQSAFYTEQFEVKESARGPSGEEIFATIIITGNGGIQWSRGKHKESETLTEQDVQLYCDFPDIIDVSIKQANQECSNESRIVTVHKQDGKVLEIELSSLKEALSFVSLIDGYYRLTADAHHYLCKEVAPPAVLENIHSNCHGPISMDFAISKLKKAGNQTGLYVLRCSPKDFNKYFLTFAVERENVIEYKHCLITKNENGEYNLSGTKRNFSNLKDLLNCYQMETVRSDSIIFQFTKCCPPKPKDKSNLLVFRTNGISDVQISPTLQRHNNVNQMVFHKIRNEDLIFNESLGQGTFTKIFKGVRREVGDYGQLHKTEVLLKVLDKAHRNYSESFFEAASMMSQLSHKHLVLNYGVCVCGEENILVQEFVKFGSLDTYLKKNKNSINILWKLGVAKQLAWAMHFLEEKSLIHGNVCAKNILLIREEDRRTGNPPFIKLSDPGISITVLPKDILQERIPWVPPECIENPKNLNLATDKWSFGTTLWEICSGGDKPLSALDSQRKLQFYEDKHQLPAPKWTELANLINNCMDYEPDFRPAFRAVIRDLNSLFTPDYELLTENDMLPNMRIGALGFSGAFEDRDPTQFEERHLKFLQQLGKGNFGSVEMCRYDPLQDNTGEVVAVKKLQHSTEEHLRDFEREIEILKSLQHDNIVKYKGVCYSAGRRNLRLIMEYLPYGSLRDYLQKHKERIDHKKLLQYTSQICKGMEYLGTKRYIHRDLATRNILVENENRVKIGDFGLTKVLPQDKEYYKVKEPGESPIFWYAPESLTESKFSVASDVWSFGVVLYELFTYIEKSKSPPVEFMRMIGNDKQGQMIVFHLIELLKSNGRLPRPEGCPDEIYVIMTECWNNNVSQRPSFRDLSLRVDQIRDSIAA
UniProt P63085, residues 2-358: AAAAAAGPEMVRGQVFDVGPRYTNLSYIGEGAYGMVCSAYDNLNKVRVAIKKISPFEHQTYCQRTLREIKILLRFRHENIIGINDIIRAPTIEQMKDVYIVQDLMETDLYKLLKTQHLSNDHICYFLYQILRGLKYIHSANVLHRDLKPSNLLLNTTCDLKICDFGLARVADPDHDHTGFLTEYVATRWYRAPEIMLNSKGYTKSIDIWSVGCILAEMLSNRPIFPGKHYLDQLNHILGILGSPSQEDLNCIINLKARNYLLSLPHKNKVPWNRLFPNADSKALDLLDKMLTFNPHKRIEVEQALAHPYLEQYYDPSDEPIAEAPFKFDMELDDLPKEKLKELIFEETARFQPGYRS
UniProt P62960, residues 2-322: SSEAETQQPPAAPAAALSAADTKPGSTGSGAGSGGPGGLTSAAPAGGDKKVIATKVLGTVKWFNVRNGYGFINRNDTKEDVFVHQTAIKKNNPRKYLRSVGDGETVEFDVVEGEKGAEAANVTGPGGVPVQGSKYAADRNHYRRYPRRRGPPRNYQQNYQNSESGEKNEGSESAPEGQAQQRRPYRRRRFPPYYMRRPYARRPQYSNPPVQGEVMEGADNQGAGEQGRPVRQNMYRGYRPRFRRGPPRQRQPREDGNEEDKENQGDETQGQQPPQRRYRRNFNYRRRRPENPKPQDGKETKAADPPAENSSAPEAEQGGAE

What was measured:
[1] = molecular target: Jak2V617F (mutated Jak2 kinase) expressed in murine Ba/F3 cells (murine) (UniProt Q62120); assay: immunoprecipitation of Jak2 from murine Jak2V617F cells, western blot
[2] = molecular target: Jak2V617F (mutated Jak2 kinase) expressed in murine Ba/F3 cells (murine) (UniProt Q62120); assay: co-immunoprecipitation and immunofluorescence co-localization in Jak2V617F cells
[3] = molecular target: Mapk1, murine, endogenous in Ba/F3 Jak2V617F cells (murine) (UniProt P63085); assay: Ybx1 affinity purification with quantitative interaction proteomics; Ybx1 immunoprecipitation and western blot with ERK1/2 antibody
[4] = molecular target: Mapk1, murine, endogenous in Ba/F3 Jak2V617F cells (murine) (UniProt P63085); assay: Ybx1 immunoprecipitation / interactome in Jak2V617F cells

binding [1]: binds
binding [2]: binds
binding [3]: binds
binding [4]: binds
Substance: Y-box binding protein 1 (Ybx1), murine, endogenous in Ba/F3 Jak2V617F cells (from UniProt P62960 2-322)
